Test results published in paper PMC9722907.
These are yes or no findings as the source states them, for the method shown. Binding seen in cells or lysates may run through a third protein. These calls come from enrichment with a bait or labelling near it, and not all partners need be listed. Sequences can lack the tags named with a protein.

T1: ATG18a-GFP (Arabidopsis thaliana) (UniProt Q93VB2)
T1 sequence: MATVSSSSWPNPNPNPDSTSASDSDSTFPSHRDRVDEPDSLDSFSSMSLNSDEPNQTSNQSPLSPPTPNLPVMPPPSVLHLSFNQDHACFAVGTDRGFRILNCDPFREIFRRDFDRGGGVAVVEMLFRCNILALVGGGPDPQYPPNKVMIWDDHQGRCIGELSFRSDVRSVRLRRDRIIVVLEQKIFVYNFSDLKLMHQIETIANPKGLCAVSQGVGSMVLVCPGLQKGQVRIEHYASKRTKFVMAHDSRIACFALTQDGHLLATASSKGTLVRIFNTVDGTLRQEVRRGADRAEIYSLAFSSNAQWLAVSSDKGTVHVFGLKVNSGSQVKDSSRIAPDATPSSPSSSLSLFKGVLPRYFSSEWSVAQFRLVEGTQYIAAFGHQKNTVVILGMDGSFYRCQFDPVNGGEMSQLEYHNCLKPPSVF


Target: T1, ATG18a-GFP (Arabidopsis thaliana)
Assay: affinity purification with mass spectrometry; immunoprecipitation of ATG18a-GFP with µMACS Anti-GFP MicroBeads from total protein of atg2(p1) plants grown under normal light; lysis buffer 50 mM HEPES-KOH (pH 7.5), 0.15 M NaCl, 0.5% Triton X-100, 0.1% Tween 20; in-gel trypsin digestion …; GFP-expressing atg2(p1) as control; repeated three times

| binding | Binder |
| --- | --- |
| binds | catalase CAT2 (enzyme, UniProt P25819 1-492) MDPYKYRPASSYNSPFFTTNSGAPVWNNNSSMTVGPRGPILLEDYHLVEKLANFDRERIPERVVHARGASAKGFFEVTHDISNLTCADFLRAPGVQTPVIVRFSTVIHERGSPETLRDPRGFAVKFYTREGNFDLVGNNFPVFFIRDGMKFPDMVHALKPNPKSHIQENWRILDFFSHHPESLNMFTFLFDDIGIPQDYRHMDGSGVNTYMLINKAGKAHYVKFHWKPTCGVKSLLEEDAIRVGGTNHSHATQDLYDSIAAGNYPEWKLFIQIIDPADEDKFDFDPLDVTKTWPEDILPLQPVGRMVLNKNIDNFFAENEQLAFCPAIIVPGIHYSDDKLLQTRVFSYADTQRHRLGPNYLQLPVNAPKCAHHNNHHEGFMNFMHRDEEVNYFPSRYDQVRHAEKYPTPPAVCSGKRERCIIEKENNFKEPGERYRTFTPERQERFIQRWIDALSDPRITHEIRSIWISYWSQADKSLGQKLASRLNVRPSI |
| binds | catalase CAT3 (enzyme, UniProt Q42547 1-492) MDPYKYRPSSAYNAPFYTTNGGAPVSNNISSLTIGERGPVLLEDYHLIEKVANFTRERIPERVVHARGISAKGFFEVTHDISNLTCADFLRAPGVQTPVIVRFSTVVHERASPETMRDIRGFAVKFYTREGNFDLVGNNTPVFFIRDGIQFPDVVHALKPNPKTNIQEYWRILDYMSHLPESLLTWCWMFDDVGIPQDYRHMEGFGVHTYTLIAKSGKVLFVKFHWKPTCGIKNLTDEEAKVVGGANHSHATKDLHDAIASGNYPEWKLFIQTMDPADEDKFDFDPLDVTKIWPEDILPLQPVGRLVLNRTIDNFFNETEQLAFNPGLVVPGIYYSDDKLLQCRIFAYGDTQRHRLGPNYLQLPVNAPKCAHHNNHHEGFMNFMHRDEEINYYPSKFDPVRCAEKVPTPTNSYTGIRTKCVIKKENNFKQAGDRYRSWAPDRQDRFVKRWVEILSEPRLTHEIRGIWISYWSQADRSLGQKLASRLNVRPSI |
